Measurements: the supplement of paper PMC12819154, “High-throughput peptide-centric local stability assay extends protein–ligand identification to membrane proteins, tissues and bacteria” (Nature Structural & Molecular Biology, 2025)
The other results are listed elsewhere or left out. Most entries show no effect beyond the scatter of the controls.

Chains of the proteins cited; added tags and fusions are not shown. Lines headed by an entry give the natural chain unless they say otherwise; changes in a name come on top.
UniProt Q70Z53: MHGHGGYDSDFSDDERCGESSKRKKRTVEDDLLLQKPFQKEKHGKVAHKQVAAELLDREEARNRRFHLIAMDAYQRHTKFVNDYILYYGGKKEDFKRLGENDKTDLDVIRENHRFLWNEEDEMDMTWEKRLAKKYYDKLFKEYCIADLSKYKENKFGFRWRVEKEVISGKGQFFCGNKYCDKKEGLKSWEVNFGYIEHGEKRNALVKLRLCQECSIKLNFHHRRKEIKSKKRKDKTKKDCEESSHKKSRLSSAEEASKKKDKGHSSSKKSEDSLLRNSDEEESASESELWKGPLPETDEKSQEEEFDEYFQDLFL
UniProt Q6VEQ5: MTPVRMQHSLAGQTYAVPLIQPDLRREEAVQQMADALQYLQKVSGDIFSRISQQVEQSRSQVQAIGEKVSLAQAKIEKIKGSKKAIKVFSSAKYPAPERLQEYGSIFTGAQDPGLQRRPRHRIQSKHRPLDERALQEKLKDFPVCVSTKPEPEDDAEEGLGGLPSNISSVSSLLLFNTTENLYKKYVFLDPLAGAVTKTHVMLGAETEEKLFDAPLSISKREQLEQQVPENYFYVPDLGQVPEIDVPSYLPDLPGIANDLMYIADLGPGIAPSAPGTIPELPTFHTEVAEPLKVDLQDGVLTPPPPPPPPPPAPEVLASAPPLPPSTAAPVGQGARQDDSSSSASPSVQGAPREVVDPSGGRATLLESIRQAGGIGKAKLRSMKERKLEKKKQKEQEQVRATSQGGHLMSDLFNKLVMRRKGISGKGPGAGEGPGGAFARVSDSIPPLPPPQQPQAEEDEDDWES
UniProt Q6ZNB6: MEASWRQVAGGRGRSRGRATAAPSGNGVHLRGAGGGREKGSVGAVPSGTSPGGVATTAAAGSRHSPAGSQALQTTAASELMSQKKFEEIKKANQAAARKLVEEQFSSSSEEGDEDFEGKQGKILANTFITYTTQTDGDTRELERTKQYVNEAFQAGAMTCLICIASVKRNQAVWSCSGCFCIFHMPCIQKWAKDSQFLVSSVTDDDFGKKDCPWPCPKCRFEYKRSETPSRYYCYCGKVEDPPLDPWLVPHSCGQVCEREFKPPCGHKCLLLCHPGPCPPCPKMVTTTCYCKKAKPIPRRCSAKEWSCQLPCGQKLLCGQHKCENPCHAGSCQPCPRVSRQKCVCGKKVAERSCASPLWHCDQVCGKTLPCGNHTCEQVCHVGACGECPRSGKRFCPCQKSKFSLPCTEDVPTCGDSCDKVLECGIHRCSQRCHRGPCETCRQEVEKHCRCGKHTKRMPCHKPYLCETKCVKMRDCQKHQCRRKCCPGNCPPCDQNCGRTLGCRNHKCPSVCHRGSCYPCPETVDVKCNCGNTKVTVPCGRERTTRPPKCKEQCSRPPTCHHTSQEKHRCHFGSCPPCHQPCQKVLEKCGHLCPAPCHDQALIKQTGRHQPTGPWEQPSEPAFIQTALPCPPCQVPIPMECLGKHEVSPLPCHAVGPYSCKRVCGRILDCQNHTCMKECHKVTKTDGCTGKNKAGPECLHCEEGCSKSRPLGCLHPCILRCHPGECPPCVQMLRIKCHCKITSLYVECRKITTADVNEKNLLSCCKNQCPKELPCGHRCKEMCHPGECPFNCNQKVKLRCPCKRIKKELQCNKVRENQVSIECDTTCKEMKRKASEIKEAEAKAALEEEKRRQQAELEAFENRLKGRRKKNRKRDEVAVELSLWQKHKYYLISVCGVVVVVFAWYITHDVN
UniProt Q7RTV5: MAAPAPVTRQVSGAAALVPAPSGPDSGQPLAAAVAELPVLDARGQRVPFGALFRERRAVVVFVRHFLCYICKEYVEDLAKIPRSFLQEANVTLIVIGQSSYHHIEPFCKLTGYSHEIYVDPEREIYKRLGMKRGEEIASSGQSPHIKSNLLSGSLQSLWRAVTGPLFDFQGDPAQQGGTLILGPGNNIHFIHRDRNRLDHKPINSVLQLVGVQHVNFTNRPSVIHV
UniProt Q76FK4: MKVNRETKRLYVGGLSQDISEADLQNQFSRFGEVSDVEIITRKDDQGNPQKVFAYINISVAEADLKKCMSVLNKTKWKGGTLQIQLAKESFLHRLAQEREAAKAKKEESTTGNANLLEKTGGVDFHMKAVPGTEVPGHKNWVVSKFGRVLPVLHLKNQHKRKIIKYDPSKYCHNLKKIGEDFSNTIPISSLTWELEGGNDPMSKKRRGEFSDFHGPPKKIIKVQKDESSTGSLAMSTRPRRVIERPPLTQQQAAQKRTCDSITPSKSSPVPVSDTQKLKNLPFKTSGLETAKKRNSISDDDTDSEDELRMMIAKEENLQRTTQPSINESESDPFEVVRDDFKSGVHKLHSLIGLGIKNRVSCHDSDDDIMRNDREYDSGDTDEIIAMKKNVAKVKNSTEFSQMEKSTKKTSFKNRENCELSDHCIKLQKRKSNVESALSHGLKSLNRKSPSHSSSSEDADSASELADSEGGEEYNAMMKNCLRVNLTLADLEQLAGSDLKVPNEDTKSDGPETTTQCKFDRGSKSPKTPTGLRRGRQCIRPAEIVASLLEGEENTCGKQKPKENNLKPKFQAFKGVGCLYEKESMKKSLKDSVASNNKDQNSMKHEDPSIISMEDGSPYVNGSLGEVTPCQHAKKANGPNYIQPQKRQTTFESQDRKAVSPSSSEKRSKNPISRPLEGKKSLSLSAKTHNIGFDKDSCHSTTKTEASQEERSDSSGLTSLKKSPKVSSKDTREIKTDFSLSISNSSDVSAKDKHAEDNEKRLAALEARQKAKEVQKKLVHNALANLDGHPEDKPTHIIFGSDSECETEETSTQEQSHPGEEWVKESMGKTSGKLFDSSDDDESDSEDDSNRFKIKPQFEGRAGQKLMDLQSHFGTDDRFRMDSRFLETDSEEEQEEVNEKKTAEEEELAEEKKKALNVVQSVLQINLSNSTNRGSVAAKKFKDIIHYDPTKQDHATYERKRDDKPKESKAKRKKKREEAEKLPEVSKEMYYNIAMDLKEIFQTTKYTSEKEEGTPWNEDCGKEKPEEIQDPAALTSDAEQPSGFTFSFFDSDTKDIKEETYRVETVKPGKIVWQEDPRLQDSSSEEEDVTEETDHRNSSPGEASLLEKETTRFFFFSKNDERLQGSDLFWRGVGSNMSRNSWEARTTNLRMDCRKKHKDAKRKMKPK
UniProt Q7Z6M1: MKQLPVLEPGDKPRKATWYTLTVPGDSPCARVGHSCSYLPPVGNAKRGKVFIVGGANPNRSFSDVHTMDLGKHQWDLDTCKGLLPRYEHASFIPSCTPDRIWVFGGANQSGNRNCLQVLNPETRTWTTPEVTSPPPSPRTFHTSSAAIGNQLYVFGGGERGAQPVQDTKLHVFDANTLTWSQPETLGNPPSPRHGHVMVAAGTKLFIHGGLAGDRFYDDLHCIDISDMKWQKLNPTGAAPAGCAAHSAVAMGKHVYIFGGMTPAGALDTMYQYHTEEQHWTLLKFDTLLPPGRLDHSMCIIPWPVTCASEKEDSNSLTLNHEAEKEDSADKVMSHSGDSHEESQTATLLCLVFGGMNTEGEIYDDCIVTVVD
UniProt Q7Z739: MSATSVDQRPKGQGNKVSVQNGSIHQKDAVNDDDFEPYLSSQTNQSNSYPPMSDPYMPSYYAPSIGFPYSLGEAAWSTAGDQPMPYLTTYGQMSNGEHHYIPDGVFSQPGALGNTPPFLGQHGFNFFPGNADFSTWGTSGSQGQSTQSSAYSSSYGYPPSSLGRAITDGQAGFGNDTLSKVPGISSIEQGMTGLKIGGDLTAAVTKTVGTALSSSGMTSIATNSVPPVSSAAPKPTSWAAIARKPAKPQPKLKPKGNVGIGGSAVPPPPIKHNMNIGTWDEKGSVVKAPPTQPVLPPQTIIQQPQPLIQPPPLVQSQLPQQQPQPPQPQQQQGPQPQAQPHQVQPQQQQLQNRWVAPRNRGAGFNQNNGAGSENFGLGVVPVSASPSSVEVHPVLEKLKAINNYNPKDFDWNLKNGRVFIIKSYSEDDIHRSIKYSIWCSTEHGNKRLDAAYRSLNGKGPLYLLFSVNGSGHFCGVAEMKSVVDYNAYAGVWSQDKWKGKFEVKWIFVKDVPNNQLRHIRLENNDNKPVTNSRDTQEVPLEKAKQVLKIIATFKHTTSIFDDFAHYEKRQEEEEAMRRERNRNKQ
UniProt Q86U28: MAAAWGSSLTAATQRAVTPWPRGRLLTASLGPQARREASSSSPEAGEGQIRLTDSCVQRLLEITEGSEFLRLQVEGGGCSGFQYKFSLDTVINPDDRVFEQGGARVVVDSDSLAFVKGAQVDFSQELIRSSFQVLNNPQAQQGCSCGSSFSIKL
UniProt Q86T82: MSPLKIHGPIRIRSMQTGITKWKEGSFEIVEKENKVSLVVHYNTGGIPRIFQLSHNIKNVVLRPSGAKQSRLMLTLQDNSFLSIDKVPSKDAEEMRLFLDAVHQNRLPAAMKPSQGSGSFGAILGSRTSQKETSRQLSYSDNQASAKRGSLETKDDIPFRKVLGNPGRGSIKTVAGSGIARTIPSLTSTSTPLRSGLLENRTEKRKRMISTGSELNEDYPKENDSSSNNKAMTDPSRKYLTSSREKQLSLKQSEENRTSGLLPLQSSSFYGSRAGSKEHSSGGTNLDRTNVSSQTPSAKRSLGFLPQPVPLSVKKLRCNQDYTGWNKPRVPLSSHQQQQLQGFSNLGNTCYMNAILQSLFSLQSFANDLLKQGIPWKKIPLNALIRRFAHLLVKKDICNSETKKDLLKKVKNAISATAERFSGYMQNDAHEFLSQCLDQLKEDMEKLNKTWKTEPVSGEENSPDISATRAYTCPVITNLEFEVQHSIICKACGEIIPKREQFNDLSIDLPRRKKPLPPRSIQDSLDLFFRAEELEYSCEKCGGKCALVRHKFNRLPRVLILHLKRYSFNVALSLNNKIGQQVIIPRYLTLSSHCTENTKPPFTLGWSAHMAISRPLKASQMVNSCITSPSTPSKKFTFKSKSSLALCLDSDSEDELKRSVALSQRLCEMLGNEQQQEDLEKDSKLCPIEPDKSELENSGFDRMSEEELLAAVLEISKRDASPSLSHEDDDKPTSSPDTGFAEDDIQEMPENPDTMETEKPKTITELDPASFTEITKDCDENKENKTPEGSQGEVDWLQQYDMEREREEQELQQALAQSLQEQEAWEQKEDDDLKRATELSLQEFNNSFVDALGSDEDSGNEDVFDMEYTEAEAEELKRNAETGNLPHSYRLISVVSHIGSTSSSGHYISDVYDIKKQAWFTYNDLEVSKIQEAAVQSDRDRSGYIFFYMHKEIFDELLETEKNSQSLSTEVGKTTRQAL
UniProt Q7Z5L9: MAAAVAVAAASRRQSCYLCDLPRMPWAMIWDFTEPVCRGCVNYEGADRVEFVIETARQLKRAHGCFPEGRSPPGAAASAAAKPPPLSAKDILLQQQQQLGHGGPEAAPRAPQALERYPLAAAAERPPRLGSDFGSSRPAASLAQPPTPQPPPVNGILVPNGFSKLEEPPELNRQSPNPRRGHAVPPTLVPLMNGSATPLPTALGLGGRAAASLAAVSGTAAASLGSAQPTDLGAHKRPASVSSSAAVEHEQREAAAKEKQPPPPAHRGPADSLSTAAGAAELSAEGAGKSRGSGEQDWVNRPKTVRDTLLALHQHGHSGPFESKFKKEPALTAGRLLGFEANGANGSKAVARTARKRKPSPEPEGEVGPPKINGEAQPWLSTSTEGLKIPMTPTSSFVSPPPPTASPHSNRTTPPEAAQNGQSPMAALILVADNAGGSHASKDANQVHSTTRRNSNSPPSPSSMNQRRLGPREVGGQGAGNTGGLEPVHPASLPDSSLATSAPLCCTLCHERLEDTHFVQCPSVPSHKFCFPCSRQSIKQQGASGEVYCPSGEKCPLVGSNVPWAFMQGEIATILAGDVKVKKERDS
UniProt Q6ZNE5, whole entry: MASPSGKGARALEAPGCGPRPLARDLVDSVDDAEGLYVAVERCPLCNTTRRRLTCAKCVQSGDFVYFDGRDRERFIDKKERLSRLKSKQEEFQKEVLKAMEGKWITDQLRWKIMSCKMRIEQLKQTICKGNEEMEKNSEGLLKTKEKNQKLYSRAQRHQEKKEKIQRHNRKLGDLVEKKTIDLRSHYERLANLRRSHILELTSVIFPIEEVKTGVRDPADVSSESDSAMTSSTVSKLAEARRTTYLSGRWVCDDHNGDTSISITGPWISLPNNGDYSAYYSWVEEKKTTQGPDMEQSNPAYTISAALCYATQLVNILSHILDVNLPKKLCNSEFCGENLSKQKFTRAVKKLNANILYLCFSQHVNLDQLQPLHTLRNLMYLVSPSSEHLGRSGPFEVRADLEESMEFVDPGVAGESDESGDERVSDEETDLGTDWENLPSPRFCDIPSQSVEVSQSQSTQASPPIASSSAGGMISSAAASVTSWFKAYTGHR
UniProt Q7Z4I7: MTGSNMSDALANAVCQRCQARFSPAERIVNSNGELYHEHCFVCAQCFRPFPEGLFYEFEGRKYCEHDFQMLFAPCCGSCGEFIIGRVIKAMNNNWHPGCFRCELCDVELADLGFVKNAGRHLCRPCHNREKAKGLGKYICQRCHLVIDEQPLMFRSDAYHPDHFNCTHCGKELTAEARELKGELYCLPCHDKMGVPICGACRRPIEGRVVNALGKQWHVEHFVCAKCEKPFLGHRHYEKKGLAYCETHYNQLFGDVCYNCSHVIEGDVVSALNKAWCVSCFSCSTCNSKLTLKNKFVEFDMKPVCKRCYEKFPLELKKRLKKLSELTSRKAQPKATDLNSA

What follows are targets tested with Cc1nc(Nc2ncc(C(=O)Nc3c(C)cccc3Cl)s2)cc(N2CCN(CCO)CC2)n1 [dasatinib] (assay: log2 fold change of tryptic peptide abundance, ligand vs vehicle (limited proteolysis) (log2 ratio); higher = more trypsin-susceptible (destabilized)). Details: ligand concentration: 5 uM; sample: K562 cleared lysate.
For “TBC1D9 (peptide sequence: VLTAYAFR, peptide start residue: 579) (UniProt Q6ZT07)”, the log2 fold change was -0.128.
“AEBP2 (peptide sequence: SLPRPHDFFDAQTLDAIR, peptide start residue: 390) (UniProt Q6ZN18)” gave a log2 fold change of 0.281.
Work on “UniProt Q86U38 (peptide sequence: EAPETGEER, peptide start residue: 74)” yielded a log2 fold change of -0.291.
For “PTAR1 (peptide sequence: LGVESWCVK, peptide start residue: 54) (UniProt Q7Z6K3)”, the log2 fold change was -0.616.
Target “GIGYF2 (peptide sequence: RQQEEILRR, peptide start residue: 763) (UniProt Q6Y7W6)” has a log2 fold change of -0.602.
“UniProt Q70Z53 (peptide sequence: GPLPETDEK, peptide start residue: 292)” was tested, and the log2 fold change was 0.522.
“WASH2P (peptide sequence: QKEQEQVR, peptide start residue: 393) (UniProt Q6VEQ5)” showed a log2 fold change of -0.0469.
“MOB2 (peptide sequence: LVTDEDVFPTKYGR, peptide start residue: 121) (UniProt Q70IA6)” was tested, and the log2 fold change was 0.272.
Target “NFXL1 (peptide sequence: RQQAELEAFENR, peptide start residue: 852) (UniProt Q6ZNB6)” has a log2 fold change of -0.261.
“GALNT7 (peptide sequence: GGNGLAPGEDR, peptide start residue: 55) (UniProt Q86SF2)” gave a log2 fold change of 0.386.
For “UniProt Q7Z6J8 (peptide sequence: GLQFVVGDGLHLR, peptide start residue: 70)”, the log2 fold change was 0.0764.
With “UniProt Q6XUX3 (peptide sequence: KVAQEAIESLSASK, peptide start residue: 567)” the log2 fold change was 0.486.
Work on “UniProt Q7RTV5 (peptide sequence: RGEEIASSGQSPHIK, peptide start residue: 133)” yielded a log2 fold change of 0.324.
With “ATG9A (peptide sequence: PGAPETTALHGGFQR, peptide start residue: 769) (UniProt Q7Z3C6)” the log2 fold change was 0.449.
“LARP4 (peptide sequence: GTGLNPNAK, peptide start residue: 12) (UniProt Q71RC2)” gave a log2 fold change of 0.235.
“MFSD6 (peptide sequence: AQPVPCETHSDPSR, peptide start residue: 738) (UniProt Q6ZSS7)” was tested, and the log2 fold change was 0.0126.
“MON2 (peptide sequence: EALVPFKDFMQPPASR, peptide start residue: 1696) (UniProt Q7Z3U7)” gave a log2 fold change of 0.52.
In the case of “UniProt Q6ZMV8 (peptide sequence: IHTGEKPYECEECGK, peptide start residue: 335)”, the log2 fold change is reported as -0.153.
In the case of “CEP68 (peptide sequence: SSLQLYR, peptide start residue: 663) (UniProt Q76N32)”, the log2 fold change is reported as 0.19.
For “AKNA (peptide sequence: GVGSAGWPDRVTFR, peptide start residue: 1203) (UniProt Q7Z591)”, the log2 fold change was 0.321.
For “PARS2 (peptide sequence: VLSLQDKSDDLTCK, peptide start residue: 56) (UniProt Q7L3T8)”, the log2 fold change was -0.221.
“THADA (peptide sequence: VISHHMQTCVENR, peptide start residue: 1660) (UniProt Q6YHU6)” showed a log2 fold change of -0.341.
With “PBRM1 (peptide sequence: KAEYEER, peptide start residue: 1425) (UniProt Q86U86)” the log2 fold change was -0.375.
“UniProt Q6ZUT1 (peptide sequence: KMLPSSSSR, peptide start residue: 50)” gave a log2 fold change of 0.23.
With “NOL8 (peptide sequence: SKNPISRPLEGK, peptide start residue: 668) (UniProt Q76FK4)” the log2 fold change was 0.382.
Work on “RABEPK (peptide sequence: QLPVLEPGDKPR, peptide start residue: 3) (UniProt Q7Z6M1)” yielded a log2 fold change of 0.199.
Work on “YTHDF3 (peptide sequence: DFDWNLK, peptide start residue: 402) (UniProt Q7Z739)” yielded a log2 fold change of -0.169.
“ISCA2 (peptide sequence: LTDSCVQR, peptide start residue: 52) (UniProt Q86U28)” showed a log2 fold change of 0.337.
“DHDDS (peptide sequence: DQATVTEQLLR, peptide start residue: 273) (UniProt Q86SQ9)” gave a log2 fold change of -0.32.
“USP37 (peptide sequence: QLSYSDNQASAK, peptide start residue: 136) (UniProt Q86T82)” was tested, and the log2 fold change was -0.32.
In the case of “IRF2BP2 (peptide sequence: DANQVHSTTR, peptide start residue: 443) (UniProt Q7Z5L9)”, the log2 fold change is reported as 0.0945.
Target “PEX26 (peptide sequence: RLDVLQAIHTAR, peptide start residue: 192) (UniProt Q7Z412)” has a log2 fold change of -0.0189.
With “UniProt Q7Z5L2 (peptide sequence: FVGMSADATPLHVAR, peptide start residue: 415)” the log2 fold change was 0.169.
Work on “ATG14 (peptide sequence: NLMYLVSPSSEHLGR, peptide start residue: 377) (UniProt Q6ZNE5)” yielded a log2 fold change of -0.475.
“UniProt Q7L523 (peptide sequence: DVHRFEK, peptide start residue: 224)” gave a log2 fold change of -0.672.
For “DNMBP (peptide sequence: HHTSSVYSISER, peptide start residue: 509) (UniProt Q6XZF7)”, the log2 fold change was -0.266.
Target “UniProt Q7Z4I7 (peptide sequence: QWHVEHFVCAK, peptide start residue: 211)” has a log2 fold change of -0.587.
